# According to patent US20170088618A1:
# By UniProt entry, the sequences of proteins in these tests, tags left out. Where a name states a change or a piece, a line headed by the entry shows the natural chain unless it says otherwise.
# UniProt Q15116: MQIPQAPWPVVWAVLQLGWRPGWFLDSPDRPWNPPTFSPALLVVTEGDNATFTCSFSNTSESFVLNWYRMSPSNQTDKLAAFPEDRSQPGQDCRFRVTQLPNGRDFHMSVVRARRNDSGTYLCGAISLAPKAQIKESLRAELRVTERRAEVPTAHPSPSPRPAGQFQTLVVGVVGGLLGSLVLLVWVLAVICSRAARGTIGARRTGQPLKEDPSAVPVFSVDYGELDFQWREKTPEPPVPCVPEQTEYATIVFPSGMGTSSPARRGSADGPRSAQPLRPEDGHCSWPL
# Results are given in words; binding and its absence hold for the method and conditions named. Some binding calls cover weakened binding; strength is not graded here.
# B1: PD1AB-6 Fab (Fab, V domains shown)
# VH: EVQLVQSGAEVKKPGATVKISCKASGFNIKDTYMHWVQQAPGKGLEWMGRIDPANGDRKYDPKFQGRVTITADTSTDTAYMELSSLRSEDTAVYYCARSGPVYYYGSSYVMDYWGQGTTVTVSS
# VL: DIVMTQSPDSLAVSLGERATINCKSGQSVLYSSNQKNFLAWYQQKPGQPPKLLIYWASTRESGVPDRFSGSGSGTDFTLTISSLQAEDVAVYYCHQYLYSWTFGQGTKLEIKR
# Tests used:
# [1] = molecular target: human PD-1 extracellular domain (crystal structure) (human) (UniProt Q15116); experiment: crystal structure (figure legend)
# [2] = molecular target: human PD-1 extracellular domain (crystal structure) (human) (UniProt Q15116); experiment: crystal structure, 1.8 Å
binder,measurement,setting,value
B1,binding,[1],binds
same,binding,[2],binds
